In assay [1] the test system is STAT5 phosphorylation by GMCSF in TF-1 cells. The assay can be described thus: JAK cellular assay: STAT5 phosphorylation by GMCSF in TF-1 cells (HTRF). To be noted: Homo sapiens, TF-1, read-out: Cell based IC50 (μM) TF-1/GM-CSF. The method, then: TF-1 cells were starved overnight in OptiMEM medium with 0.5% charcoal stripped fetal bovine serum, 0.1 mM nonessential amino acids (NEAA), 1 mM sodium pyruvate and without phenol red in CO2 incubator maintained at 37° c. Next day, cells were resuspended in RPMI without phenol red and dispensed into a 96 well plate at a final cell density of 1,20,000 cells per well. Compounds were diluted in DMSO and added to cells and incubated for 30 minutes in CO2 incubator maintained at 37° c. Final DMSO concentration in cell based assay was 0.2%. Human recombinant cytokines, IL-6 (30 ng/ml) and GMCSF (5 ng/ml) were added to the plate containing cells along with compound and incubated for 20 minutes with gentle tapping at every 5 minutes once. Compound mediated effects on STAT3 and STAT5 phosphorylation was measured in the lysates prepared by using CISBIO pSTAT3 and pSTAT5 detection kits by HTRF method. Background signal obtained from cells which were not activated with cytokines, was subtracted from vehicle controls and compound treated wells.
A general note: Time-resolved FRET reads energy transfer from a long-lived donor to a nearby acceptor.

The subject of assay [2] is STAT5 phosphorylation by IL-2 in HT-2 cells. Briefly: STAT5 phosphorylation by IL-2 in HT-2 cells (HTRF). The settings on record: HT2, read-out: Cell based IC50 (μM) HT-2/IL-2. The method, then:
HT-2 cells were starved […] in RPMI phenol red with 10% fetal bovine serum for 4 hours in CO2 incubator maintained at 37° c. Compounds were diluted in DMSO and added to 96 well plate containing a final density of 1,20,000 cells per well. Cells and compounds are incubated for 30 minutes in CO2 incubator maintained at 37° C. and final DMSO concentration in cell based assay was 0.2%. Human recombinant cytokine, IL-2 (50 U/ml) was added to the plate containing cells and compound and incubated for 20 minutes with gentle tapping/shaking at every 5 minutes once. Compound mediated effects on STAT5 phosphorylation was measured in the lysates prepared by using CISBIO pSTAT5 detection kit by HTRF method. Background signal obtained from cells which were not activated with cytokines, was subtracted from vehicle controls and compound treated wells.

For assay [3], the system named is IFN-γ production in NK 92 cells by IL-12. Briefly: IFN-γ production in NK 92 cells by IL-12 (ELISA). To be noted: NK92, IFN-γ detection from cell supernatants, read-out: Cell based IC50 (μM) NK-92/IL-12*. The method, then: NK 92 cells were cultured in medium without IL-2 for overnight. Next day, 5000 cells per well NK 92 cells were seeded in a 96 well plate. Compounds were added to cells and incubated for 1 hour. Later IL-12, 10 U/ml was added to cells and incubated for overnight. Supernatant was collected from the wells and IFN-7 secretion was measured by using human IFN-7 ELISA kit. Absorbance was measured at 450 nm in BMG FLUOstar. Background signal obtained from cells which were not activated with cytokines, was subtracted from vehicle controls and compound treated wells.
For orientation: ELISA stands for enzyme-linked immunosorbent assay.

On to `C[C@@H]1CCN(C(=O)CC#N)C[C@@H]1N(C)c1ncnc2[nH]ccc12` [Tofacitinib, tofacitinib, reference compound], for which the IC50 in assay [1] is 0.24 µM; in assay [2], 0.019 µM; in assay [3], 3 µM.

The values are drawn from patent US12516056B2, “Compounds for inhibition of janus kinase 1” (MANKIND PHARMA LTD., priority 2019, dated 2026).
